For some of these results: No signal at the amounts used counts as a negative. For some of these results: For at least one entry, the source does not settle the construct or the ends of the probe.
How the values were obtained:
streptavidin = streptavidin (UniProt P22629); experiment: binding assay; conditions: control without biotin; lower absorbance change than AC-X1; purified recombinant protein; protein details: immobilized on NUNC 96-well plates (Thermo Fisher); folded or branched DNA
trypsin (Bos taurus) [1] = target: trypsin (Bos taurus) (UniProt P00760); experiment: EMSA; conditions: with thrombin 1:1:1, 500 mM NaCl, purified native protein, protein details: Sigma Aldrich, from bovine pancreas, folded or branched DNA
trypsin (Bos taurus) [2] = target: trypsin (Bos taurus) (UniProt P00760); experiment: FP; conditions: no arms; low salt: 5 mM KCl, 25 mM Hepes pH 7.4; +/-0.7e-5; non-specific electrostatic; purified native protein; protein details: Sigma Aldrich, from bovine pancreas; label: fluorescein on 5'-terminal dT; folded or branched DNA; variant of AC 1 (ODN 1, Formula 3)

Sequences of proteins named here, by UniProt entry; tags and fusion partners are left off. A change or cut given only in a name is not applied to a line headed by its entry.
UniProt P22629: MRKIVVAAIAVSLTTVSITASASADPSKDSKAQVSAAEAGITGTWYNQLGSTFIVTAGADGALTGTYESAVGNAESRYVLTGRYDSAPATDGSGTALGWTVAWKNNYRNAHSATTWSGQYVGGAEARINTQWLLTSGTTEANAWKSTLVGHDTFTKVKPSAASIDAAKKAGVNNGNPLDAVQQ
UniProt P00760: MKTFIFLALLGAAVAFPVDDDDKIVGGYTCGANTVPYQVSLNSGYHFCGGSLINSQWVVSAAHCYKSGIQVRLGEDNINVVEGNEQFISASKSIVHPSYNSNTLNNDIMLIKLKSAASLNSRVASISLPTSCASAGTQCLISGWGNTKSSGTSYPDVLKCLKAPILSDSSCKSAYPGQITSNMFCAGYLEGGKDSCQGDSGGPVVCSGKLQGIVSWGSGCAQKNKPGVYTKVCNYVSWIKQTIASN

Sequence: TGGGTAGGGCGGGTTGGGT [HBA (hemin-binding aptamer)]
- binding result (streptavidin): no binding

Sequence: TGGTTGGTGTGGTTGGT [TBA]
- binding result (trypsin (Bos taurus) [1]; no arms, no spacers, no ternary complex, variant of m-TBA): no binding

Sequence: TGGTTGGTGTGGTTGGT [m-TBA]
- binding result (trypsin (Bos taurus) [1]; 5'-benzamidine arm via C10 spacer, 3'-iodophenylthiourea arm via C6 spacer, ternary complex confirmed by SDS-PAGE, variant of AC 1 (ODN 1, Formula 3)): binds

Sequence: TTGGTTGGTGTGGTTGGT [ODN 4 (Formula 6)]
- Kd (trypsin (Bos taurus) [2]): 31 µM

Reference: patent US20110190483
